From patent US8771741B2, “In vivo photodynamic therapy of cancer via a near infrared agent encapsulated in calcium phosphate nanoparticles” (The Penn State Research Foundation, priority 2009, dated 2014)

Test system: bovine aortic endothelial cells (BAECs)
Assay: Staining of bovine aortic endothelial cells with and without cytochalasin-D
Type: cell-based
Conditions: untreated cells, about 1 μM overnight

## Cy3 amidite [Cy3 Dye]
  staining pattern of cells: specific staining of internal membranous organelles
